Test results reported in paper PMC7819943, “Rice protein-binding microarrays: a tool to detect cis-acting elements near promoter regions in rice”.
The other results are listed elsewhere or left out.

What follows are sequences tested against T1, OsSMF1 (Oryza sativa, UniProt Q6ZLB0 1-436) (assay: protein-binding microarray (RPBM); PBS, 2% BSA, 51.3 ng/ul salmon testes DNA, 50 uM zinc acetate, 200 nM TF, 25 C, 1 h; high values mean tight binding). Details: protein: recombinant; tags: N-terminal polyhistidine and DsRed monomer fusion (pET32a); chain copies: 2; label: CyDye5-dUTP incorporated in the synthesized complementary strand; 3' TTTTT single-stranded linker to array surface; dsDNA, one strand shown.
T1 sequence: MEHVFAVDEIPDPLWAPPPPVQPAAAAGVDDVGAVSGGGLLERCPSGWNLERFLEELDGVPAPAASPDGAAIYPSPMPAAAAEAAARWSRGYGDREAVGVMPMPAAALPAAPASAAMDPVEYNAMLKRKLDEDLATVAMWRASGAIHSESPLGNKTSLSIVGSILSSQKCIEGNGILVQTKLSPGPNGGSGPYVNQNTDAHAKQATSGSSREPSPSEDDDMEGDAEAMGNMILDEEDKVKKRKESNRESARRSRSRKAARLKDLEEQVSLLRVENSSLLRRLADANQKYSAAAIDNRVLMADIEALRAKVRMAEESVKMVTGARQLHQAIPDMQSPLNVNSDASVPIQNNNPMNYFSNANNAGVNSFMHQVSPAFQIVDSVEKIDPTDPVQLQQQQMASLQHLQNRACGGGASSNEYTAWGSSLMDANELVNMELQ
In short: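 A custom Agilent array was converted to double-stranded form by primer extension with Cy5-dUTP and blocked with 2% BSA. Protein at 200 nM in PBS with 2% BSA, salmon testes DNA and 50 µM zinc acetate was applied for 1 h at 25 °C, followed by washing. The proteins were polyhistidine–DsRed N-terminal fusions of transcription factors, expressed in E. coli BL21-CodonPlus and Ni–NTA-purified. The binding signal is per-feature fluorescence intensity (arbitrary units) from an Axon 4000B scanner.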

Sequence	binding signal
ACGACGACGACGTCGACGTGTGAACCAGTCAACTGCCACGCGGAGTCACCTAGTGCAG	8590 fluorescence intensity (a.u.)
GCCATGATCAGTCGCGTCCGCGTCCGCGTCCGCCGCTCGCCGGAGTCACCTAGTGCAG	3640 fluorescence intensity (a.u.)
CGGTCGTAGCCACTGGCGCGCCTTAGTCAGCGCGTGGGGCCGGAGTCACCTAGTGCAG	7010 fluorescence intensity (a.u.)
TTGCCGGTACTTTGGTACGTCATCCGTGTATAAGTCGGTTCGGAGTCACCTAGTGCAG	5840 fluorescence intensity (a.u.)
AACCCAACCCAACTCACTTCACGGCCCATCATCCCACACTCGGAGTCACCTAGTGCAG	3380 fluorescence intensity (a.u.)
TCTCTTCTTTATGCCAACTGGCAATGGCATCCTCCAATCCCGGAGTCACCTAGTGCAG	5270 fluorescence intensity (a.u.)
GGGCACGCGAGCTGCTCGACACGTCGCTCGCTCTCCAGATCGGAGTCACCTAGTGCAG	4620 fluorescence intensity (a.u.)
GTCCCTTAATAGCTCGAGAAGTGTCTCCACGATGACGGGGCGGAGTCACCTAGTGCAG	5400 fluorescence intensity (a.u.)
CAAATGTTGACACCTAGCTCTCACCATGCCACCTCAACTTCGGAGTCACCTAGTGCAG	6030 fluorescence intensity (a.u.)
AGGCGATCGATTCCTGGACACTCGCGCCACGCCACCCCACCGGAGTCACCTAGTGCAG	5700 fluorescence intensity (a.u.)
GGGCGTGGTGGTGGTGGTGGTGGTTATACGGTTTTCGGTTCGGAGTCACCTAGTGCAG	4400 fluorescence intensity (a.u.)
GGAGCGCCCGCCTTATGGTCTCGGCGCTGTCGTGGCGCGGCGGAGTCACCTAGTGCAG	3430 fluorescence intensity (a.u.)
CTTGCTGCAGCCACACAAAGAAAGAGTGACTCATCGTTTACGGAGTCACCTAGTGCAG	5800 fluorescence intensity (a.u.)
TAAAATAGTCCTTCCACAGTGGGGCTGCTTGGGCTTGTGTCGGAGTCACCTAGTGCAG	23400 fluorescence intensity (a.u.)
TTCCGGTGATGTCCTTCTTCTTGGCGCTCCTACTAAGGCACGGAGTCACCTAGTGCAG	23800 fluorescence intensity (a.u.)
TGCTGCTCTTGACACCACGTCGTTGCTGCCCTGCTTCCACCGGAGTCACCTAGTGCAG	3810 fluorescence intensity (a.u.)
AGCAGACTCCACGTCGTCACCAACTTCCTTCCTCCTGGTCCGGAGTCACCTAGTGCAG	11300 fluorescence intensity (a.u.)
AGGGGCGGAGGGCAGCGATTTTGGTTGGTAGTAGTACGGGCGGAGTCACCTAGTGCAG	3610 fluorescence intensity (a.u.)
GTCATGTGATTGATGATTCAGCATCCCTTGAGGCTCAGTGCGGAGTCACCTAGTGCAG	6080 fluorescence intensity (a.u.)
ATTTAATAAGCTTCATCAATTTCGTGTGGAGGCCCACGCTCGGAGTCACCTAGTGCAG	3250 fluorescence intensity (a.u.)
TGTGCCTTCATAGGGTTGAGTCTACGTGTGTTGTGAGTGACGGAGTCACCTAGTGCAG	3560 fluorescence intensity (a.u.)

Sequence	binding signal
CTAATCATGGATTAATTAGGCTCAATAGATTCGTCTCACGCGGAGTCACCTAGTGCAG	16900 fluorescence intensity (a.u.)
GGCTGGTGGTTTGTTGATGTGGAGCCCGGCCCGGCCGCACCGGAGTCACCTAGTGCAG	4310 fluorescence intensity (a.u.)
CGACACCTTCGTCTCCACGCTGAGTCGCTGACCACCATGGCGGAGTCACCTAGTGCAG	3900 fluorescence intensity (a.u.)
CTATGTTAGAGGGCAGTGGTGTATCAATTCATTGTCCTCCCGGAGTCACCTAGTGCAG	3300 fluorescence intensity (a.u.)
CCGGTCGTTTCCCGTATTGTTGGCATATATGTACACGGAGCGGAGTCACCTAGTGCAG	4830 fluorescence intensity (a.u.)
CCTAGACTTCCTCTCTCTCGCGTCGCGCTCGCCTTCGCCTCGGAGTCACCTAGTGCAG	3250 fluorescence intensity (a.u.)
AACGGGTTGTTTTGGTTTTGCTGATGTACGACATATCAAGCGGAGTCACCTAGTGCAG	4460 fluorescence intensity (a.u.)
AACAATAGTGGGTGATGTGGCAATGATTCTAGATCCTAGCCGGAGTCACCTAGTGCAG	18200 fluorescence intensity (a.u.)
ATCCCTCTTTACTTAAAGACTACGGAAGAGTGCATGACAGCGGAGTCACCTAGTGCAG	3160 fluorescence intensity (a.u.)
AGTACACCTAGCTCTGTCTGTCTAGCTTAACGCCGTGTGTCGGAGTCACCTAGTGCAG	22500 fluorescence intensity (a.u.)
GATATAATACTGATCTCATATCCAAGTTTAATTTCAACATCGGAGTCACCTAGTGCAG	20300 fluorescence intensity (a.u.)
CGGATCCAATGTGCGGAACCGGCTCATGAACAGTGTGAAACGGAGTCACCTAGTGCAG	12700 fluorescence intensity (a.u.)
GCGAGGCCCGGCCCAACGCCCAGCCCTTACCCCACACATGCGGAGTCACCTAGTGCAG	21500 fluorescence intensity (a.u.)
CCATCTCGGCCCATGAGGATGCTGACGTCACCGCGTCGTCCGGAGTCACCTAGTGCAG	42700 fluorescence intensity (a.u.)
ATCAGCCGCTTAAAATGTAGAGTACTCCCAAGCAACGTTGCGGAGTCACCTAGTGCAG	4140 fluorescence intensity (a.u.)
AGACTCGTCGATGCTGGCGTCACCACCGTCCCCGACTTCTCGGAGTCACCTAGTGCAG	12700 fluorescence intensity (a.u.)
TTTCTTATAGGCACAATACTTTGTTTCAAAGTCAAAGAAGCGGAGTCACCTAGTGCAG	3850 fluorescence intensity (a.u.)
GGAAGAGAAGTTTGCCTTGTCAGCAACTGTAGTTTATTGCCGGAGTCACCTAGTGCAG	5430 fluorescence intensity (a.u.)
AATATAGAATATCTCAATCGAGGTGTGGCTGACAGGTCACCGGAGTCACCTAGTGCAG	5520 fluorescence intensity (a.u.)
TATAGAATTTTCTCTTAAAATACTTATCCGATTTATGATCCGGAGTCACCTAGTGCAG	54100 fluorescence intensity (a.u.)
ACGCCGGAGACACGCAAGGTGTGGTATGCCTCATTGCATCCGGAGTCACCTAGTGCAG	4630 fluorescence intensity (a.u.)

Rewritten field by field: part of the list above
CCATCTCGGCCCATGAGGATGCTGACGTCACCGCGTCGTCCGGAGTCACCTAGTGCAG
  binding signal: 42700 fluorescence intensity (a.u.)
ATCAGCCGCTTAAAATGTAGAGTACTCCCAAGCAACGTTGCGGAGTCACCTAGTGCAG
  binding signal: 4140 fluorescence intensity (a.u.)
AGACTCGTCGATGCTGGCGTCACCACCGTCCCCGACTTCTCGGAGTCACCTAGTGCAG
  binding signal: 12700 fluorescence intensity (a.u.)
